Measurements published in US20140287995A1, “STABLE PHARMACEUTICAL FORMULATIONS OF GROWTH FACTOR PEPTIDES” (THE UNIVERSITY OF CHICAGO, priority 2011, published 2014).

Assay: Stability of neutral lyophilized NX001 formulation, 12 months storage
Format: physicochemical
Protocol: The stability of NX001 formulations was also evaluated. The stability of a lot of NX001 was monitored for 12 months at storage temperatures of 5° C. and 25° C. Appearance of lyophilized cake, reconstitution time, appearance of the reconstituted solution, pH, identity of the peptide, potency and purity of the peptide, and residual moisture were evaluated.
The evaluated parameters of neutral formulations of NX001 were not changed following 12 months storage at temperatures of 5° C. and 25° C.

Measured: Identity (reverse-phase HPLC peak of sample compared to standard)

AQPYPQGNHEASYG [NX001, growth factor peptide designated NX001; PPL-WGF codes are lots of it]
Positive: 5° C., After 12 months of storage | 5° C., Initial | 25° C., After 12 months of storage | 25° C., Initial
